Data taken from ChEMBL document CHEMBL3988442, “University of Dundee, Small-Polar-MMV Screening Library” (2021).

Mtb cholesterol medium: 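Whole-cell growth test on Mycobacterium tuberculosis, read after 4 days in a medium based on cholesterol and the lipid DPPC; the read-out is not stated. Concentration: 500 µM. Higher reads as more growth inhibition (inferred: compounds with an IC50 in retests scored well above the rest). About 18,000 compounds were tested under these conditions; 5% (about 900) showed 50% or more at least once.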
Mtb glucose medium: 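Phenotypic screen: M. tuberculosis growth, glucose 7H9 medium, 3 days; the read-out is not stated. Compounds at 500 µM. Higher reads as more growth inhibition (inferred: compounds with an IC50 in retests scored well above the rest). Size under these conditions: about 18,000 compounds, about 1,400 of them at 50% or above in at least one test.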

Each number is a percent effect as filed. How 0% and 100% were set is not recorded. Most values in the screen are low, and negative values occur. Compounds were drawn at random from those tested, without regard to their results.

- CCc1nccn1CCN1CCCC(NC(C)=O)C1 (centres unmarked) : Mtb cholesterol medium: -11.58%; Mtb glucose medium: -0.3569%
- CC(=O)N1CCN(Cc2cncs2)C(C)(C)C1 : Mtb cholesterol medium: -0.8803%; Mtb glucose medium: 5.715%
- O=c1[nH]c2ccc(S(=O)(=O)CCO)cc2o1 : Mtb cholesterol medium: -20.38%; Mtb glucose medium: -10.11%
- CNCCc1ccc(C#N)cc1 : Mtb cholesterol medium: -0.1245%; Mtb glucose medium: 17.62%
- CNC(=O)COc1ccc(C(=O)NC2CCCC2)cc1 : Mtb cholesterol medium: 15.37%; Mtb glucose medium: 33.16%
- Cc1nc(CC(=O)NCCN2CCNC2=O)c(C)s1 : Mtb cholesterol medium: 2.642%; Mtb glucose medium: -2.174%
- CC(C)SCC(=O)N(C)C(C)c1ccncc1 (centres unmarked) : Mtb cholesterol medium: 17.4%; Mtb glucose medium: 34.03%
- CCCC1SCCN1C(=O)c1ccc2nnnn2c1 (centres unmarked) : Mtb cholesterol medium: -2.704%; Mtb glucose medium: 5.576%
- COc1ccc(NC(=O)C2CCC(=O)NC2)cn1 (centres unmarked) : Mtb cholesterol medium: -41.91%; Mtb glucose medium: -27.7%
- CNC(=O)CN(C)S(=O)(=O)c1cc(C)c(OC)cc1C : Mtb cholesterol medium: -22.37%; Mtb glucose medium: -13.28%
- CCCN1CCN(C(=O)c2c(F)cccc2F)CC1 : Mtb cholesterol medium: 10.08%; Mtb glucose medium: 5.776%
- COc1ccc(S(=O)(=O)N2CCCN(C)CC2)cc1 : Mtb cholesterol medium: 6.166%; Mtb glucose medium: 30.72%
- CCN(CC)CCOc1ccc(CN)cc1 : Mtb cholesterol medium: -8.214%; Mtb glucose medium: 3.784%
- NCc1ccc(-c2ccccc2)o1 : Mtb cholesterol medium: 2.692%; Mtb glucose medium: 0.5297%
- O=C(C1CCCCO1)N1CCN(c2ccncc2)CC1 (centres unmarked) : Mtb cholesterol medium: 13.18%; Mtb glucose medium: 11.01%
- c1cnn(CCN2CCNCC2)c1 : Mtb cholesterol medium: -0.3851%; Mtb glucose medium: -0.2641%
- CC(C)n1cnnc1CN(C)Cc1cscn1 : Mtb cholesterol medium: -3.58%; Mtb glucose medium: 5.58%
- OCc1cc(C2CC2)n[nH]1 : Mtb cholesterol medium: 6.633%; Mtb glucose medium: 14.56%
- Cc1ccc(F)cc1C(=O)OCCCNC(N)=O : Mtb cholesterol medium: 15.66%; Mtb glucose medium: 18.1%
- CCS(=O)(=O)c1cccc(S(=O)(=O)N2CC[C@H](N)C2)c1 : Mtb cholesterol medium: 17.36%; Mtb glucose medium: 26.81%
- CC(=O)NCc1ccc(C(=O)CSc2ccccn2)s1 : Mtb cholesterol medium: 48.67%; Mtb glucose medium: 51.43%
- Cc1oc2ncn(C)c(=O)c2c1C(=O)NC1CC1 : Mtb cholesterol medium: 4.35%; Mtb glucose medium: -2.892%
- COCc1cccc(-c2nc(C3CCOC3)no2)n1 (centres unmarked) : Mtb cholesterol medium: 4.344%; Mtb glucose medium: 16.37%
- CCC(CC)C(O)CNC(=O)Cn1cnnn1 (centres unmarked) : Mtb cholesterol medium: -19.89%; Mtb glucose medium: -7.512%
- OCCN1CCN(c2ccc3nnnn3n2)CC1 : Mtb cholesterol medium: 3.25%; Mtb glucose medium: 7.866%
- Cc1oc(C)c(C(=O)NCC(=O)N2CCCC2)c1C : Mtb cholesterol medium: 73.81%; Mtb glucose medium: 25.34%
- CC(C)NC(=O)c1cn(Cc2ccc(Cl)cc2)nn1 : Mtb cholesterol medium: 12.46%; Mtb glucose medium: 13.81%
- O=C1CN(C(=O)CNc2c(F)cccc2Cl)CCN1 : Mtb cholesterol medium: -7.428%; Mtb glucose medium: 3.69%
- CCN(CCn1cccn1)C1CCN(C(C)=O)CC1 : Mtb cholesterol medium: -7.515%; Mtb glucose medium: -0.05639%
- CC(Oc1ccc(N(C)S(C)(=O)=O)cc1)C(=O)N(C)C (centres unmarked) : Mtb cholesterol medium: -13.12%; Mtb glucose medium: 2.018%
- CCC[C@H]1CN(C(=O)c2cnc(C)cn2)C[C@@H]1N : Mtb cholesterol medium: -14.26%; Mtb glucose medium: 8.901%

Once more, the final 3:

compound	Mtb cholesterol medium	Mtb glucose medium
CCN(CCn1cccn1)C1CCN(C(C)=O)CC1	-7.515%	-0.05639%
CC(Oc1ccc(N(C)S(C)(=O)=O)cc1)C(=O)N(C)C (centres unmarked)	-13.12%	2.018%
CCC[C@H]1CN(C(=O)c2cnc(C)cn2)C[C@@H]1N	-14.26%	8.901%